PubChem BioAssay AID652243, Drosophila RNAi Screening Center | 2013

- Assay: 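Fly regulators of androgen-dependent reporter output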 (primary screen)
- Cell system: Drosophila S2R+ cells
- Reagents: long dsRNA against Drosophila genes
- Time to read-out: 72 h (48 h, then 24 h hormone)
- Challenge: synthetic androgen R1881 at 10 nM for 24 h
- Detection: 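Per-well raw luminescence of the androgen-driven firefly reporter and of the Renilla control, two replicates each, without normalisation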
- Direction: firefly reporter light: higher = more light from androgen-responsive reporter; Renilla control light: higher = more constitutive control signal (cell number, transfection)
- Active means: 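Across duplicate plates, a knock-down whose log firefly/Renilla ratio shifted a set fold down or up from the GFP/LacZ control mean was a hit; the downward cut appears as both 1.5 and 3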
- Calls: active = hit: reporter lowered or raised; inactive = no hit
The screen tested about 24,000 reagents; this is a random part of those with a known target gene and a result. Over the whole deposit, 246 (1%) are marked active. 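Plates not normalised; calls are printed but the firefly/Renilla ratio behind them is not deposited; fold cut for lowering reported inconsistently.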 The raw values are shown without normalisation. The record does not give: the amount of reagent.

With knock-down of CG9815 [DRSC04567] the results were firefly reporter light, replicate 1 = 1.63e5; firefly reporter light, replicate 2 = 2.20e5; Renilla control light, replicate 1 = 1.45e6; Renilla control light, replicate 2 = 1.96e6; inactive.
Knock-down of CG9815 [DRSC25175] resulted in: firefly reporter light, replicate 1 = 5.25e5; firefly reporter light, replicate 2 = 7.07e5; Renilla control light, replicate 1 = 9.55e5; Renilla control light, replicate 2 = 1.17e6; inactive.
With knock-down of CG3199 [DRSC15467], the screen gave firefly reporter light, replicate 1 = 2.06e5; firefly reporter light, replicate 2 = 1.28e5; Renilla control light, replicate 1 = 2.66e6; Renilla control light, replicate 2 = 1.92e6; inactive.
Knock-down of CG3199 [DRSC30060] gave: firefly reporter light, replicate 1 = 9.85e5; firefly reporter light, replicate 2 = 8.82e5; Renilla control light, replicate 1 = 1.46e6; Renilla control light, replicate 2 = 9.61e5; inactive.
Depletion of CG30283 [DRSC04071] came out at: firefly reporter light, replicate 1 = 2.33e5; firefly reporter light, replicate 2 = 2.74e5; Renilla control light, replicate 1 = 1.90e6; Renilla control light, replicate 2 = 1.63e6; inactive.
For CG30283 [DRSC24411] the deposit lists firefly reporter light, replicate 1 = 6147; firefly reporter light, replicate 2 = 6979; Renilla control light, replicate 1 = 177; inactive.
Against sens-2 [DRSC02613], the values are firefly reporter light, replicate 1 = 2.39e5; firefly reporter light, replicate 2 = 3.25e5; Renilla control light, replicate 1 = 1.98e6; Renilla control light, replicate 2 = 1.53e6; inactive.
sens-2 [DRSC25026] gave firefly reporter light, replicate 1 = 7.58e5; firefly reporter light, replicate 2 = 5.49e5; Renilla control light, replicate 1 = 8.31e5; Renilla control light, replicate 2 = 6.70e5; inactive.
After knock-down of CG13926 [DRSC08395], the screen gave firefly reporter light, replicate 1 = 71517; firefly reporter light, replicate 2 = 98161; Renilla control light, replicate 1 = 1.24e6; Renilla control light, replicate 2 = 1.21e6; inactive.
Against CG15219 [DRSC03715], the values are firefly reporter light, replicate 1 = 4.32e5; firefly reporter light, replicate 2 = 4.36e5; Renilla control light, replicate 1 = 2.36e6; Renilla control light, replicate 2 = 2.11e6; inactive.
Knock-down of ZAP3 [DRSC17852] resulted in: firefly reporter light, replicate 1 = 1.07e5; firefly reporter light, replicate 2 = 75915; Renilla control light, replicate 1 = 7.59e5; Renilla control light, replicate 2 = 6.53e5; inactive.
Against ZAP3 [DRSC17853], the entry reads firefly reporter light, replicate 1 = 2.24e5; firefly reporter light, replicate 2 = 3.95e5; Renilla control light, replicate 1 = 3.58e6; Renilla control light, replicate 2 = 4.19e6; inactive.
ZAP3 [DRSC18249] gave firefly reporter light, replicate 1 = 2.61e5; firefly reporter light, replicate 2 = 3.31e5; Renilla control light, replicate 1 = 2.27e6; Renilla control light, replicate 2 = 2.70e6; inactive.
After knock-down of CG43318 [DRSC14999], the screen gave firefly reporter light, replicate 1 = 2.46e5; firefly reporter light, replicate 2 = 1.14e5; Renilla control light, replicate 1 = 2.80e6; Renilla control light, replicate 2 = 2.54e6; inactive.
Knock-down of CG32225 [DRSC09657] came out at: firefly reporter light, replicate 1 = 1.38e5; firefly reporter light, replicate 2 = 1.65e5; Renilla control light, replicate 1 = 3.46e5; Renilla control light, replicate 2 = 3.53e5; inactive.
For CG32225 [DRSC26362], the entry reads firefly reporter light, replicate 1 = 2.61e5; firefly reporter light, replicate 2 = 3.92e5; Renilla control light, replicate 1 = 3.04e5; Renilla control light, replicate 2 = 6.59e5; inactive.
CG4554 [DRSC04473] showed firefly reporter light, replicate 1 = 6.29e5; firefly reporter light, replicate 2 = 6.00e5; Renilla control light, replicate 1 = 1.75e6; Renilla control light, replicate 2 = 1.96e6; inactive.
Knock-down of CG4554 [DRSC27881] resulted in: firefly reporter light, replicate 1 = 6.30e5; firefly reporter light, replicate 2 = 4.12e5; Renilla control light, replicate 1 = 2.30e6; Renilla control light, replicate 2 = 1.26e6; inactive.
mRpS30 [DRSC20107] gave firefly reporter light, replicate 1 = 1.12e5; firefly reporter light, replicate 2 = 1.12e5; Renilla control light, replicate 1 = 7.44e5; Renilla control light, replicate 2 = 5.53e5; inactive.
Depletion of Ugt37A1 [DRSC02114] came out at: firefly reporter light, replicate 1 = 1.60e5; firefly reporter light, replicate 2 = 1.61e5; Renilla control light, replicate 1 = 1.12e6; Renilla control light, replicate 2 = 1.58e6; inactive.
After knock-down of kairos [DRSC23286], the screen gave firefly reporter light, replicate 1 = 5.94e5; firefly reporter light, replicate 2 = 7.20e5; Renilla control light, replicate 1 = 8.48e5; Renilla control light, replicate 2 = 8.82e5; inactive.
With knock-down of kairos [DRSC30011], the screen gave firefly reporter light, replicate 1 = 4.37e5; firefly reporter light, replicate 2 = 3.83e5; Renilla control light, replicate 1 = 1.03e6; Renilla control light, replicate 2 = 8.24e5; inactive.

2 consecutive entries from above, quoted:
ZAP3 [DRSC17852] — firefly reporter light, replicate 1 = 1.07e5; firefly reporter light, replicate 2 = 75915; Renilla control light, replicate 1 = 7.59e5; Renilla control light, replicate 2 = 6.53e5; Call = inactive
ZAP3 [DRSC17853] — firefly reporter light, replicate 1 = 2.24e5; firefly reporter light, replicate 2 = 3.95e5; Renilla control light, replicate 1 = 3.58e6; Renilla control light, replicate 2 = 4.19e6; Call = inactive
